Measurements published in publication PMC4221739.
Results are given in words; binding and its absence hold for the method and conditions named. Binding seen in cells or lysates may run through a third protein. Some entries that bind do so weakly or less than the wild type. Sequences can lack the tags named with a protein.

Target: T1, full-length SF-Dlg3 (Streptavidin-Flag-tagged Dlg3) (UniProt P70175)
T1 sequence: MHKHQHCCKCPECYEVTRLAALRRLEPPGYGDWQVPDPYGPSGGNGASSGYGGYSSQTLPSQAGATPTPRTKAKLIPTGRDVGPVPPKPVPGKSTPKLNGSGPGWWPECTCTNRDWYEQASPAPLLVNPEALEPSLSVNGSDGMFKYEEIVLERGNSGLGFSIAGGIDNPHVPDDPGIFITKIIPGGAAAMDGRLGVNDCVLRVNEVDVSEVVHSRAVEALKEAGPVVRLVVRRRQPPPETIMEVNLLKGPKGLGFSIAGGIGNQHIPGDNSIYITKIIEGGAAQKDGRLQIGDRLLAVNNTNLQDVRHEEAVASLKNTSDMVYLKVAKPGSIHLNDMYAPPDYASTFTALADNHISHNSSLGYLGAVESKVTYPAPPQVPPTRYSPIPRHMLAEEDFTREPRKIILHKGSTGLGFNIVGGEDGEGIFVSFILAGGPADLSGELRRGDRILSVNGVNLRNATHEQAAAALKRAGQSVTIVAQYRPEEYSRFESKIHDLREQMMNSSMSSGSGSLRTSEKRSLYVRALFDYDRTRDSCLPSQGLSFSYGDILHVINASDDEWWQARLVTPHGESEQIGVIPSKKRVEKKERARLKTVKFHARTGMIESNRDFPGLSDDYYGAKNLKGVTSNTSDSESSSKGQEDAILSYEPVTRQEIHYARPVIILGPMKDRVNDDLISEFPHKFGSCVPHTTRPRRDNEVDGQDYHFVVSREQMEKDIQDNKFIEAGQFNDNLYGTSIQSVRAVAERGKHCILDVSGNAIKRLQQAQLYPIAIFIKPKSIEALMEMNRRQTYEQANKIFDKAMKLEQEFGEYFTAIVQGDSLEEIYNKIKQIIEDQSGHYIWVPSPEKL
Experiment: co-IP; SF-tagged Dlg3 variants precipitated on Strep-Tactin resin (Strep-IP) from lysates of serum starved, ciliated HEK293T cells co-transfected with Fltp-myc variants; lysis buffer 50 mM Tris/HCl pH 7.4, 150 mM NaCl, 2 mM EDTA, 1% Nonidet P-40; 1 hr at 4°C; desthiobiotin elution; western blot

binding: binds
B1: full-length Fltp-myc (Flattop, myc-tagged) (protein, UniProt Q6P8X9 1-189)
chain: MATNYSANQYEKAYLPTYLQNWSPARPTKEKIAAHEGYTQIIANDRGHLLPSVPRSKASPWGSFMGTWQMPLKIPPAKVTLTARTTTAADNLTKWIHKNPDLLNACNGLRPEISGKPFDPDSQTKQKKSVTKTVQQAPNPTIIPSSPVIQGDNPDEPQSSHPSAGHTPGPQTPVNSPNNPPPSPCKSTK
